Results from paper doi:10.1101/2023.01.27.525999.

Sequences of proteins named here, by UniProt entry; tags and fusion partners are left off.
UniProt O35144: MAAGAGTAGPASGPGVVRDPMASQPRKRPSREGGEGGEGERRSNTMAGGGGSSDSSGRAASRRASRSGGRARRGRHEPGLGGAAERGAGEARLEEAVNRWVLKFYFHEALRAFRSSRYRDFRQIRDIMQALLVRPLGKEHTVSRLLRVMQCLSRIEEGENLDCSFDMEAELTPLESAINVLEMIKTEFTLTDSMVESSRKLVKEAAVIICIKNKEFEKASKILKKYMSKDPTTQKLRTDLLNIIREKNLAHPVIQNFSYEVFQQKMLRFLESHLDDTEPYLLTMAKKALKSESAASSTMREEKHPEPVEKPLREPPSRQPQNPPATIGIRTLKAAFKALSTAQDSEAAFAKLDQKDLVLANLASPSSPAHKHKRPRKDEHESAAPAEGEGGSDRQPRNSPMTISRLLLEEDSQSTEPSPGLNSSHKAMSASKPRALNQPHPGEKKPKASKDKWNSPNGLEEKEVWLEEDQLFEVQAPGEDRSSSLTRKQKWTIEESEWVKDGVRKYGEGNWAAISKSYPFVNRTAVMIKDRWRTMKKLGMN

T1: TERF2 (human (endogenous in U2OS)), Q15554
T1 chain: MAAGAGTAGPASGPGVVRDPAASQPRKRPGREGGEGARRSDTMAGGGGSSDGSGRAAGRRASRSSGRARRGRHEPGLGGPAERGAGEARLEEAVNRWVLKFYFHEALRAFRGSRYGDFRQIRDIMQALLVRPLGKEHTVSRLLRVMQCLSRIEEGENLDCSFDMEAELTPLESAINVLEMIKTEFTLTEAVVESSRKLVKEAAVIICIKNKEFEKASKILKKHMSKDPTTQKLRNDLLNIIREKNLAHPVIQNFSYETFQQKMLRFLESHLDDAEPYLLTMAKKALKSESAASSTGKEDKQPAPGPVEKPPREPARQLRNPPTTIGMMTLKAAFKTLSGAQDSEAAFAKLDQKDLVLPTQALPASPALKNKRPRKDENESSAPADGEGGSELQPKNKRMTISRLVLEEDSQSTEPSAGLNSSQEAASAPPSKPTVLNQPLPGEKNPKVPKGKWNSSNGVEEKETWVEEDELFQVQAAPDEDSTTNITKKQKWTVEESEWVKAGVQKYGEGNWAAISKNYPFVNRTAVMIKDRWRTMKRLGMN


Legend:
Test in all cases: affinity purification with mass spectrometry
[1] = target: T1, TERF2 (human (endogenous in U2OS)), …; settings: remark: other sources report otherwise
[2] = target: Terf2 (mouse) (mouse (endogenous in liver and R1/E embryonic stem cells)) (UniProt O35144)
[3] = target: Terf2 (mouse) (mouse (endogenous in liver and R1/E embryonic stem cells)) (UniProt O35144); remark: listed apart in the source
[4] = target: TERF2 (human (endogenous in U2OS)) (UniProt Q15554)

| binding [1] | binding [2] | binding [3] | binding [4] | Binder |
| --- | --- | --- | --- | --- |
| binds | – | – | – | TERF1, P54274 1-439 (protein) MAEDVSSAAPSPRGCADGRDADPTEEQMAETERNDEEQFECQELLECQVQVGAPEEEEEEEEDAGLVAEAEAVAAGWMLDFLCLSLCRAFRDGRSEDFRRTRNSAEAIIHGLSSLTACQLRTIYICQFLTRIAAGKTLDAQFENDERITPLESALMIWGSIEKEHDKLHEEIQNLIKIQAIAVCMENGNFKEAEEVFERIFGDPNSHMPFKSKLLMIISQKDTFHSFFQHFSYNHMMEKIKSYVNYVLSEKSSTFLMKAAAKVVESKRTRTITSQDKPSGNDVEMETEANLDTRKSVSDKQSAVTESSEGTVSLLRSHKNLFLSKLQHGTQQQDLNKKERRVGTPQSTKKKKESRRATESRIPVSKSQPVTPEKHRARKRQAWLWEEDKNLRSGVRKYGEGNWSKILLHYKFNNRTSVMLKDRWRTMKKLKLISSDSED |
| – | binds | binds | binds | TERF2IP (protein, UniProt Q9NYB0 1-399) MAEAMDLGKDPNGPTHSSTLFVRDDGSSMSFYVRPSPAKRRLSTLILHGGGTVCRVQEPGAVLLAQPGEALAEASGDFISTQYILDCVERNERLELEAYRLGPASAADTGSEAKPGALAEGAAEPEPQRHAGRIAFTDADDVAILTYVKENARSPSSVTGNALWKAMEKSSLTQHSWQSLKDRYLKHLRGQEHKYLLGDAPVSPSSQKLKRKAEEDPEAADSGEPQNKRTPDLPEEEYVKEEIQENEEAVKKMLVEATREFEEVVVDESPPDFEIHITMCDDDPPTPEEDSETQPDEEEEEEEEKVSQPEVGAAIKIIRQLMEKFNLDLSTVTQAFLKNSGELEATSAFLASGQRADGYPIWSRQDDIDLQKDDEDTREALVKKFGAQNVARRIEFRKK |
| – | binds | binds | – | ACD (mouse shelterin member) (protein, UniProt Q5EE38 1-416) MSDSGLLALQPWIRELILGSETLSSPRTGQLLKVLQDSETPGPSSAPDTPDTGAVLLVSDGTHSVRCVVTRNAIDTSDWEEKELGFRGTEGRLLLLQACGLRVQVAQDHAPAEFYLQVDRFNLLPTEQPRIQVTGCNQDSDVQRKLNECLEDHLSESASSSAGLTLSQLLDEVREDQDHRGALVCLAKSCLVLKGPCTTTPLTDWITSGSQALGKAVFTVSGSLLHIPEGEEQILSSTGSSQKARGTSASPSHMPLEESGASVSLLSALATSDPGQMDSSQSPPAVGSTSPRAQAPTSPPCNSTPSSLLLNCSPSLSPLHPAPRSHQSCETRAQAPKLEFQCSFKKRQLLPRTSAQELCSVWEPPERHRDTSAFQYKYETPSASLHTQVQTARLSPQLVAWALNIVMESESELTQV |

Continued, binder first:

| Binder | binding [1] | binding [2] | binding [3] | binding [4] |
| --- | --- | --- | --- | --- |
| POT1 (protein, UniProt Q9NUX5 1-634) MSLVPATNYIYTPLNQLKGGTIVNVYGVVKFFKPPYLSKGTDYCSVVTIVDQTNVKLTCLLFSGNYEALPIIYKNGDIVRFHRLKIQVYKKETQGITSSGFASLTFEGTLGAPIIPRTSSKYFNFTTEDHKMVEALRVWASTHMSPSWTLLKLCDVQPMQYFDLTCQLLGKAEVDGASFLLKVWDGTRTPFPSWRVLIQDLVLEGDLSHIHRLQNLTIDILVYDNHVHVARSLKVGSFLRIYSLHTKLQSMNSENQTMLSLEFHLHGGTSYGRGIRVLPESNSDVDQLKKDLESANLTANQHSDVICQSEPDDSFPSSGSVSLYEVERCQQLSATILTDHQYLERTPLCAILKQKAPQQYRIRAKLRSYKPRRLFQSVKLHCPKCHLLQEVPHEGDLDIIFQDGATKTPDVKLQNTSLYDSKIWTTKNQKGRKVAVHFVKNNGILPLSNECLLLIEGGTLSEICKLSNKFNSVIPVRSGHEDLELLDLSAPFLIQGTIHHYGCKQCSSLRSIQNLNSLVDKTSWIPSSVAEALGIVPLQYVFVMTFTLDDGTGVLEAYLMDSDKFFQIPASEVLMDDDLQKSVDMIMDMFCPPGIKIDAYPWLECFIKSYNVTNGTDNQICYQIFDTTVAEDVI | – | – | – | binds |
| TINF2 (mouse shelterin member) (protein, UniProt Q9QXG9 1-341) MAPPPGVGPASLRFAAAASWLVVRRRRVEHFPKVVEFLQSLRAAAPGLVCYRHHERLCMSLKAKVVVELILQARPWDQVLNALKHHFPAESRTTKEDRKLLEARENFCLLVKHLSEDPPSSLQELEQDYGESFLVAMEKLLFEYLCQLEKALPPVRAQELQDALSWSQPGSFITSSVALHQYGMDMGWTFPESSTSGSGNLIEPMEESPHQQTRPAFHSPLPKAKLGPHQPASLEHPEHLAGHRFNLAPLGKRKSRSHWTSAKACHKERPTVMLLPFRNMGLPAQDLSNPKSREEPGAASAASVGTEPVCTEEAKTPSRPLGKRALEETPPDSPAASRRTV | – | binds | binds | – |
| TERF1 (mouse shelterin member) (protein, UniProt P70371 1-421) MAETVSSAARDAPSREGWTDSDSPEQEEVGDDAELLQCQLQLGTPREMENAELVAEVEAVAAGWMLDFLCLSLCRAFRDGRSEDFRRTRDSAEAIIHGLHRLTAYQLKTVYICQFLTRVASGKALDAQFEVDERITPLESALMIWNSIEKEHDKLHDEIKNLIKIQAVAVCMEIGSFKEAEEVFERIFGDPEFYTPLERKLLKIISQKDVFHSLFQHFSYSCMMEKIQSYVGDVLSEKSSTFLMKAATKVVENEKARTQASKDRPDATNTGMDTEVGLNKEKSVNGQQSTETEPLVDTVSSIRSHKNALSQLKHRRAPSDFSRNEARTGTLQCETTMERNRRTSGRNRLCVSENQPDTDDKSGRRKRQTWLWEEDRILKCGVKKYGEGNWAKILSHYKFNNRTSVMLKDRWRTMKRLKLIS | – | binds | binds | – |
| TINF2 (protein, UniProt Q9BSI4 1-451) MATPLVAGPAALRFAAAASWQVVRGRCVEHFPRVLEFLRSLRAVAPGLVRYRHHERLCMGLKAKVVVELILQGRPWAQVLKALNHHFPESGPIVRDPKATKQDLRKILEAQETFYQQVKQLSEAPVDLASKLQELEQEYGEPFLAAMEKLLFEYLCQLEKALPTPQAQQLQDVLSWMQPGVSITSSLAWRQYGVDMGWLLPECSVTDSVNLAEPMEQNPPQQQRLALHNPLPKAKPGTHLPQGPSSRTHPEPLAGRHFNLAPLGRRRVQSQWASTRGGHKERPTVMLFPFRNLGSPTQVISKPESKEEHAIYTADLAMGTRAASTGKSKSPCQTLGGRALKENPVDLPATEQKENCLDCYMDPLRLSLLPPRARKPVCPPSLCSSVITIGDLVLDSDEEENGQGEGKESLENYQKTKFDTLIPTLCEYLPPSGHGAIPVSSCDCRDSSRPL | – | – | – | binds |

Like-named read-outs stand apart in the source and are kept apart here. No constants are given. Whether binding was seen depends on the method and setting. Binding seen in cells or lysates may run through a third protein. Here binding means that the protein was enriched with, or labelled near, the bait; the list need not be complete.
